Results are given in words; binding and its absence hold for the method and conditions named. Some binding calls cover weakened binding; strength is not graded here.
Key:
[1] = target: human clusterin expressed or secreted by human tumour cells (human) (UniProt P10909); assay: immunohistochemistry with h16B5 at 5 µg/ml on paraffin sections of Aspc-1, BxPC-3, PANC-1 and MiaPaCa-2 tumors
[2] = target: recombinant monomeric human clusterin (human) (UniProt P10909); assay: SPR (BIAcore 3000), clusterin amine-coupled on a CM3 chip, full length antibody injected at 1.953-31.25 nM
[3] = target: murine clusterin (murine) (UniProt Q06890); assay: immunohistochemistry, HRP-conjugated secondary antibody
[4] = target: murine clusterin (murine) (UniProt Q06890); assay: immunohistochemistry with h16B5 at 5 µg/ml on fixed frozen sections of 4T1 mouse mammary tumors
[5] = target: murine clusterin (murine) (UniProt Q06890); assay: immunofluorescence on BRI-JM01 mouse mammary carcinoma cells

By UniProt entry, the sequences of proteins in these tests, tags left out. Residues count along the entry.
UniProt P10909, residues 23-449: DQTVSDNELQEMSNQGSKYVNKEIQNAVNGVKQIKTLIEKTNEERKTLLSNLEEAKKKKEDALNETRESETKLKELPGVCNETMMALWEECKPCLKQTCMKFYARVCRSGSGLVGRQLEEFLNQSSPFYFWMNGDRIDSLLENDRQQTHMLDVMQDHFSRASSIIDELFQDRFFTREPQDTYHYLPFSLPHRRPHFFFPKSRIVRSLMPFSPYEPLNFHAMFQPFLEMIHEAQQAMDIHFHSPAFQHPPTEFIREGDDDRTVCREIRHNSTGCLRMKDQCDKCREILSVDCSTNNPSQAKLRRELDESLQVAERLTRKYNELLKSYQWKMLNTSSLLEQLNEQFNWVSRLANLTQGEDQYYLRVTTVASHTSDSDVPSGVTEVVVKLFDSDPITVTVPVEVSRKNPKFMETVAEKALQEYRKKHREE
UniProt Q06890, residues 22-448: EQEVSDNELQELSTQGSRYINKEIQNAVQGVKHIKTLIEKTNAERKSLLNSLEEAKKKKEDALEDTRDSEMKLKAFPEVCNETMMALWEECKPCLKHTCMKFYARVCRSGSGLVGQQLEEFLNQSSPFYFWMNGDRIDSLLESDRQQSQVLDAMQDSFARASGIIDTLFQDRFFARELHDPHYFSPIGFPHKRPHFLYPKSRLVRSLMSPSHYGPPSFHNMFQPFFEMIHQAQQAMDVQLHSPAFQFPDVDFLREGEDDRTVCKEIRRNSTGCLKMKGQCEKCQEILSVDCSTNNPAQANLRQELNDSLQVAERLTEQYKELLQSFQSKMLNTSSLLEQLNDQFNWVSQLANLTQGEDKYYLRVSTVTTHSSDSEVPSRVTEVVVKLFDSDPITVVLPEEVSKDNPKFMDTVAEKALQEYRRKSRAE

Measured: binding

B1: humanized 16B5 anti-clusterin antibody (full length, human IgG2) (antibody, V domains shown)
VH: QVQLVQSGAEVKKPGATVKISCKVSGFNIKDIYMHWVQQAPGKGLEWMGRIDPAYGNTKYDPKFQGRVTITADTSTDTAYMELSSLRSEDTAVYYCARRYDTAMDYWGQGTLVTVSS
VL: DIVMTQSPDSLAVSLGERATINCKSSQSLLNSRTRKNYLAWYQQKPGQPPKLLIYWASTRESGVPDRFSGSGSGTDFTLTISSLQAEDVAVYYCKQSYNLWTFGQGTKLEIKV
binds: all assays above
